Record: PubChem BioAssay AID1671195 (Yale University, 2021)
Here is a random part of about 22,000 deposited reagents. About 1,510 of them (6.9%) were called active. 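Active includes knockdowns raising or lowering LDL uptake; positive z-scores mean more uptake, negative mean less.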 No sequences are given here.

- Test: 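Genes whose knockdown alters LDL uptake in liver cancer cells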 (primary screen)
- Cell system: human Huh7 hepatoma cells
- Reagent: siRNA pool against human genes, 18 nM
- Timing: about 2 to 2.5 days of knockdown, then 8 h LDL uptake
- Treatment: DiI-labelled LDL at 30 µg/ml for 8 h, in lipoprotein-deficient serum medium
- Read-out: 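Fluorescent LDL signal imaged in cells, scaled to the plate median, robust z-score for each replicate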
- Direction: robust z-score: higher = more LDL uptake after knockdown
- Active means: 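a gene counts as active if at least two replicate z-scores exceed ±2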

robust z-score, replicate 1	robust z-score, replicate 2	robust z-score, replicate 3	Call	target
0.633	0.597	1.18	inactive	LOC442144 (retired record) (GeneID 442144)
-0.642	-0.45	-1.16	inactive	ADGRL1 (GeneID 22859)
0.158	0.655	-1.09	inactive	TLR6 (GeneID 10333)
-0.0463	-0.326	-0.0315	inactive	TRHR (GeneID 7201)
0.132	-0.29	0.41	inactive	CEP15 (GeneID 57415)
0.314	-0.537	-0.292	inactive	KMT2E (GeneID 55904)
0.264	-0.265	0.465	inactive	STK3 (GeneID 6788)
1.51	4.75	2.6	active	SPRR1B (GeneID 6699)
-0.218	-0.621	-0.765	inactive	RAB27B (GeneID 5874)
2.13	0.631	-0.0137	inactive	CPNE1 (GeneID 8904)
-0.529	-0.272	-0.177	inactive	IRF7 (GeneID 3665)
-0.115	-0.315	-0.238	inactive	TGM6 (GeneID 343641)
-2.5	0.0418	-0.191	inactive	CPT1C (GeneID 126129)
0.454	0.491	0.619	inactive	LOC441879 (retired record) (GeneID 441879)
-0.452	-0.145	-0.0559	inactive	FN3K (GeneID 64122)
0.941	0.776	-0.129	inactive	PKLR (GeneID 5313)
-0.809	-0.0646	-0.177	inactive	MRPL27 (GeneID 51264)
1.15	0.0555	1.44	inactive	CD160 (GeneID 11126)
2.27	-0.522	0.776	inactive	DDX47 (GeneID 51202)
1.94	1.59	2.12	inactive	LOC440493 (retired record) (GeneID 440493)
2.18	1.5	1.39	inactive	PPP2R3A (GeneID 5523)
-0.371	0.728	-1.53	inactive	ARFIP1 (GeneID 27236)
-0.714	-0.843	-1.49	inactive	OR56B4 (GeneID 196335)
0.73	0.911	1.08	inactive	SYCN (GeneID 342898)
-0.453	-0.169	-0.311	inactive	RGL4 (GeneID 266747)
-1.93	-0.799	-0.341	inactive	C6orf141 (GeneID 135398)
1.1	-0.96	0.206	inactive	RPS6KA6 (GeneID 27330)
0.121	0.924	1.62	inactive	FOXJ2 (GeneID 55810)
